# Publication PMC6636751
# T1: ASK1-TBD-HA (thioredoxin-binding domain of human ASK1, residues 88-302, HA tag) (human) (UniProt Q99683)
# T1 sequence: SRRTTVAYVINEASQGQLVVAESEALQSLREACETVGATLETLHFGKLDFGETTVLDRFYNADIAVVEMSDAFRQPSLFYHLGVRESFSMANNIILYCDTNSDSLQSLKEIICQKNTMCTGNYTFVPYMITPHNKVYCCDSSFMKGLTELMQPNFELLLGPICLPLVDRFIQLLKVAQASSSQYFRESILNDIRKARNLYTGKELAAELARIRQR
# T2: ASK1-N (N-terminal fragment of ASK1 with the N-terminal coiled-coil domain, sequence 1-400), HA- or Flag-tagged (human) (UniProt Q99683)
# T2 sequence: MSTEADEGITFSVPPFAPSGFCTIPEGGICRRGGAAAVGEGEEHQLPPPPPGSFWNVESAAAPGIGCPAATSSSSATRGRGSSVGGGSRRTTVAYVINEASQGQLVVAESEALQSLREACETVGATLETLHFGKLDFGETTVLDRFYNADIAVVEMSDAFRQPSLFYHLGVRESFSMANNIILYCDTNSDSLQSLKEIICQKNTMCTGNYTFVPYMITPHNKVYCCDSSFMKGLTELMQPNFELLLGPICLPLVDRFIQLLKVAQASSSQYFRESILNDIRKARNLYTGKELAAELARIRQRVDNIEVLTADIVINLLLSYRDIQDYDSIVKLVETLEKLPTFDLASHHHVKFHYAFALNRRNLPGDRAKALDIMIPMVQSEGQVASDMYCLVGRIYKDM
# What was measured:
# [1] = biological target: T1, ASK1-TBD-HA (thioredoxin-binding domain of human ASK1, residues 88-302, HA tag) (human); assay: co-IP; HEK293T cotransfected with Trxlp-GFP and ASK1-TBD-HA; lysate (20 mM Tris, 100 mM KCl, 0.1% NP-40, 1 mM EDTA, 10% glycerol) precipitated with HA beads; blots with anti-GFP and anti-HA
# [2] = biological target: T2, ASK1-N (N-terminal fragment of ASK1 with the N-terminal coiled-coil domain, sequence 1-400), HA- or Flag-tagged (human); assay: co-IP; HEK293T transfected with combinations of ASK1-N-HA, ASK1-N-Flag, Trxlp-HA and human TRX1-HA; lysates precipitated with anti-flag antibody; blots with anti-Flag or anti-HA
# [3] = biological target: Trxlp-MBP (Edwardsiella piscicida EIB202); assay: pull-down; purified Trxlp-MBP on MBP beads incubated with ASK1-TBD-His for 4 h at 4 °C, eluted with 20 mM maltose (also the reverse on His beads, eluted with 200 mM imidazole); blots with anti-His or anti-MBP; both purified
molecule,measurement,setting,value
Trxlp-GFP (Edwardsiella piscicida thioredoxin-like protein with GFP tag),binding,[1],binds
Trxlp-HA (Edwardsiella piscicida EIB202),binding,[2],binds
"ASK1-TBD-His (thioredoxin-binding domain of human ASK1, residues 88-302, 6xHis tag) (domain or fragment, UniProt Q99683 88-302) SRRTTVAYVINEASQGQLVVAESEALQSLREACETVGATLETLHFGKLDFGETTVLDRFYNADIAVVEMSDAFRQPSLFYHLGVRESFSMANNIILYCDTNSDSLQSLKEIICQKNTMCTGNYTFVPYMITPHNKVYCCDSSFMKGLTELMQPNFELLLGPICLPLVDRFIQLLKVAQASSSQYFRESILNDIRKARNLYTGKELAAELARIRQR",binding,[3],binds

# Results are given in words; binding and its absence hold for the method and conditions named. Binding calls can cover weak binding; strength is not graded here. Sequences can lack the tags named with a protein. For part of these data: Binding seen in cells or lysates may run through a third protein.
